The record followed here is ChEMBL document CHEMBL5506042, “Discovery of the Clinical Candidate IDOR-1117-2520: A Potent and Selective Antagonist of CCR6 for Autoimmune Diseases” (J Med Chem, 2024).

The nature of this series: Lipophilicity, LogD of the compound in 1-Octanol/PBS at pH 7.4 by miniaturized shake flask method. Conditions: octanol/water.

Each structure is given as a SMILES string.

For `CN1CC(C#N)(C(O)(c2ccc(OC(F)(F)F)cc2)c2cccc(Cl)c2)C1` (racemic), the logD stood at 3.8.
